According to US20240150465A1:
These are yes or no findings as the source states them, for the method shown. Binding can be weak; no strength is given.

B1: DLA0126 (antibody, human IgG1, V domains shown)
VH: QSVEESGGRLVTPGTPLTLTCTVSGFSLSRYAMSWVRQAPGKGLEWIGIITGGGDPYYASWAKGRFTISKTSTTMDLKITSPTTEDTATYFCARMIGSEYASSSEYYDAFDPWGPGTLVTVSS
VL: ALVMTQTPSSVSAAVGGTVTINCQASQNIYSNLAWYQQKPGQRPKLLIYGASNLESGVPSRFKGSGSGTEYTLTISDLECDDAAIYYCQSAYYTTSVDVLYPFGGGTEVVVK
B2: DLA0106 (antibody, human IgG1, V domains shown)
VH: QSVEESGGRLVTPGTPLTLTCTVSGIDLSSYAMSWVRQAPGKGLEWIGIISNSGSGFYANWAKGRFTISKTSSTTVDVKISSPTTEDTATYFCARVFDADSSGYYYYGMDPWGPGTLVTVSS
VL: DVVMTQTPSSVSEPVGGTVTIKCQASEDIESYLAWYQQKPGQPPKLLIYAASTLASGVSSRFRGSGSGTEYTLTISDLECADAATYYCQSTYYDSSGVDWAFGGGTEVVVK
B3: DLA0316 (antibody, human IgG1, V domains shown)
VH: QEQLVESGGGLVQPGGSLKLSCKVSGFDFSNYGVSWVRQAPGKGLEWIGYIDPAFGRTYYASWVNGRFTISSHNAQNTLYLQLNSLTAADTATYFCVRVALVVAGVAYYGMDVWGPGTLVTVSS
VL: DVVMTQTPASVEAAVGGTVTINCQASQNIYSYLSWYQQKPGQPPKLLIYRTSTLASGVPSRFKGSGSGTQFTLTISDLECADAATYYCQSYYYSSGSSYGAFAFGGGTEVVVK
B4: DLA0769 (antibody, human IgG1, V domains shown)
VH: QEQLVESGGGLVQPEGSLTLTCTASGFSFSSSGYMCWVRQAPGKGLEWIACISGGSSGDTDYANWAKGRFSISKTSSTTVTLQMTSLTVADTATYFCARDVYIDSTIFNFNLWGPGTLVTVSS
VL: QVLTQTPSPVSAAVGGTVTISCQASQSVYNNNNLAWYQQKPGQPPKLLIYAASSLASGVPSRFKGSGAGTQFTLTISDLECDDAATYYCQGTYYSSGWYSTFGGGTEVVVK
B5: DLA0841 (antibody, human IgG1, V domains shown)
VH: QEQLVESGGGLVQPEGSLTLTCTASGFSFSSSYDMCWVRQAPGKGPEWIACIYTGDGSTDYASWAKGRFTVSKASSTTVTLQMTSLAVADTATYFCARNSGYGYFGLWGPGTLVTVSS
VL: QVLTQTPSPVSAAVGGTVTISCQSTESVYGSDWLSWYQQKPGQPPKVLIYQASNLEIGVPSRFKGSGSGTQFTLTISGAQCDDAATYYCQGYYSGYIYAFGGGTEVVVK
B6: DLA0580 (antibody, human IgG1, V domains shown)
VH: QEQLVESGGGLVQPGASLTLTCKASGFDFTSNAMCWVRQAPGKGPEWIACIYNDDGSAYSASWAKGRFTVSKTSSTAVTLQVTGLTAADTATYFCARSPYYTYGGAPSAYASGYFNLWGPGTLVTVSS
VL: DIVMTQTPASVEAAVGGTVTIKCQASENIYNSLAWYQQKPGQPPKLLMHDASVLTSGVPSRFSGSGYGTEFTLTISDLECADAATYYCQSDYYSTGGSYGFAFGGGTEVVVK
B7: DLA0641 (antibody, human IgG1, V domains shown)
VH: QEQLVESGGGLVQPGASLTLTCKASGFSFNTSYCPCWVRQVPGKGPEWIACIDAGYSGATWYANWAKGRFTISKTSSTTVTLQMTSLTGADTATYFCVRCDAAGSGAFNLWGPGTLVTVSS
VL: AYDMTQTPASVEVPVGGTVTIKCQASQSIYSYLSWYQQKPGQPPKLLIYEASKLTSGVPSRFSGSGSGTEFTLTISGVQCDDAATYYCQQGSGYMDVDNVFGGGTEVVVK
B8: DLA0379 (antibody, human IgG1, V domains shown)
VH: QSLEESGGRLVTPGTPLTLTCTASGFSLNTYHMIWVRQAPGKGLEWIGIVDSGGSTYYASWAKGRFTISRTSTTVDLKATSLTTEDTATYFCARGGSWDGFNIWGPGTLVTVSS
VL: DVVMTQTPSSVSAAVGGTVTINCQSSQSVYNSDFLAWYQQKPGQPPKLLIYAASTLASGVPSRFKGSGSGTQFTLTISDLECDDAATYYCQGTYEDVGWFNDFGGGTEVVVK

Biological target: del4
Experiment: ELISA with the human DLL3 ECD fragment proteins del0 to del6, OD405

Row | binding | Binder
1 | binds | B1
2 | binds | B2
3 | binds | B3
4 | binds | B4
5 | binds | B5
6 | binds | B6
7 | binds | B7

Biological target: del5
Experiment: as above

Row | binding | Binder
8 | binds | B3
9 | binds | B4
10 | binds | B5
11 | binds | B7

Biological target: del1
Experiment: as above

Row | binding | Binder
12 | binds | B1
13 | binds | B2
14 | binds | B8
15 | binds | B3
16 | binds | B4
17 | binds | B5
18 | binds | B6
19 | binds | B7

Biological target: del6
Experiment: as above

Row | binding | Binder
20 | binds | B3
21 | binds | B4
22 | binds | B5
23 | binds | B7

Biological target: del3
Experiment: as above

Row | binding | Binder
24 | binds | B1
25 | binds | B2
26 | binds | B3
27 | binds | B4
28 | binds | B5
29 | binds | B6
30 | binds | B7

Biological target: del2
Experiment: as above

Row | binding | Binder
31 | binds | B1
32 | binds | B2
33 | binds | B3
34 | binds | B4
35 | binds | B5
36 | binds | B6
37 | binds | B7
